The chains behind the UniProt entries cited, without tags or fusion partners. Where a name states a change or a piece, a line headed by the entry shows the natural chain unless it says otherwise.
UniProt O76093: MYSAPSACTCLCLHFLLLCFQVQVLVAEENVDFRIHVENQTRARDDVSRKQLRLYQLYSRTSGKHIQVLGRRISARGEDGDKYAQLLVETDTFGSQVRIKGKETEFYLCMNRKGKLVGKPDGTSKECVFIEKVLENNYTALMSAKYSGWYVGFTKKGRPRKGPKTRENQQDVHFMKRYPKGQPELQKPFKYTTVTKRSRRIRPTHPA

Results are given in words; binding and its absence hold for the method and conditions named. Some results given as binding are weak or reduced against the parent protein; the word gives no strength. Tags and fused reporters may be left off the sequences shown.
These substances were tested against T1, FGFR4 extracellular domain, immobilized (R4-Fc) (UniProt P22455) (assay: ELISA: biotinylated ligand on immobilized FGFR extracellular domain).
T1 sequence (looked up): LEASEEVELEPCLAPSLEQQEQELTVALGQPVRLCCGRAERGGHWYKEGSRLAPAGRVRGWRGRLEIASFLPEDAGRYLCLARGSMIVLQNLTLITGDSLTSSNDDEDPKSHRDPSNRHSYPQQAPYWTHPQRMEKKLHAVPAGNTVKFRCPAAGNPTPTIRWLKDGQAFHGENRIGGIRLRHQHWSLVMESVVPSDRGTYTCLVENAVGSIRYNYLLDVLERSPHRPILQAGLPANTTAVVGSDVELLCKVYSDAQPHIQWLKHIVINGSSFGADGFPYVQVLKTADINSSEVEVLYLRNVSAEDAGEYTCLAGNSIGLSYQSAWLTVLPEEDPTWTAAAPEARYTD
“FGF-18^Δ51 (from UniProt O76093 52-207) (ligand)” was tested, and the binding was “binds”. With “FGF-18^Δ37 (from UniProt O76093 38-207) (ligand)” the binding was “binds”. For “FGF-18 (recombinant wild type, mature form without the signal peptide) (from UniProt O76093 29-207) (ligand)”, the binding was “binds”. “FGF-18^Δ45 (from UniProt O76093 46-207) (ligand)” was tested, and the binding was “binds”.

These substances were tested against T1, FGFR4 extracellular domain, immobilized (R4-Fc) (assay: functional ELISA on immobilized FGFR).
With “FGF-18^Δ31 (from UniProt O76093 32-207) (ligand)” the binding was “binds”. With “FGF-18 (recombinant wild type, mature form without the signal peptide) (from UniProt O76093 29-207) (ligand)” the binding was “binds”.

— patent publication US20130225493A1
